# Test results: patent US9090599B2, “Heteroarylmethyl amides” (Hoffman-La Roche Inc., priority 2010, dated 2015)
# Sequences of proteins named here, by UniProt entry; tags and fusion partners are left off.
# UniProt P34972, whole entry: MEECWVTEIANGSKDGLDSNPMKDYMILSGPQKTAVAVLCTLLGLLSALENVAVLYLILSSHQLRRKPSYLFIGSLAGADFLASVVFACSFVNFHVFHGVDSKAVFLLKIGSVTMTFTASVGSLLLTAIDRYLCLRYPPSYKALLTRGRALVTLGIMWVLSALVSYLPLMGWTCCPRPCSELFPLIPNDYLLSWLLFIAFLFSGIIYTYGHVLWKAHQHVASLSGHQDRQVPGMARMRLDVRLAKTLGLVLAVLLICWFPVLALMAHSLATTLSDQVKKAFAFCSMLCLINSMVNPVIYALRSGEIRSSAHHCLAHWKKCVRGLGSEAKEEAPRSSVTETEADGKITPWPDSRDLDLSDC
# UniProt P21554, whole entry: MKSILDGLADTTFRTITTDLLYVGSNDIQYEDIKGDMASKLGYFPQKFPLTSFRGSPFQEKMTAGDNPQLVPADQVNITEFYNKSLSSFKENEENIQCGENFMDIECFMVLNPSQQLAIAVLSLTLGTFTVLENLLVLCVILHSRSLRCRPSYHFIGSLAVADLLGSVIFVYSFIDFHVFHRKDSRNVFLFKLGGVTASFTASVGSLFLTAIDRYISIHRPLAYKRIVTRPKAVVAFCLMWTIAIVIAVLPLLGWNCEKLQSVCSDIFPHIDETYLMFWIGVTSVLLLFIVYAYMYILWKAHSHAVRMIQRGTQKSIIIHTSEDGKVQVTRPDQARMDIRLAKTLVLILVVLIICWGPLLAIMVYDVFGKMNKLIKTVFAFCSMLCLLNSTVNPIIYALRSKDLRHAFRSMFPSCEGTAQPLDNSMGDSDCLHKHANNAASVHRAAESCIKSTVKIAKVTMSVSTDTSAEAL
# What was measured:
# [1] = target: T1, human CB2 receptor (Homo sapiens, UniProt P34972); assay: CB2 receptor affinity, [3H]-CP-55,940 displacement, HEK cell membranes; type: binding; conditions: 10 μM compound, radioligand [3H]-CP-55,940
# T1 construct: expressed in transfected cells; host or cells: human embryonic kidney (HEK) cells, Semliki Forest Virus system, membrane preparations
# Protocol: (§1) The affinity of the compounds of the invention for cannabinoid CB2 receptors was determined using membrane preparations of human embryonic kidney (HEK) cells in which the human CB2 receptor is transiently transfected using a Semliki Forest Virus system in conjunction with [^3H]-CP-55,940 as radioligand. After incubation of freshly prepared cell membrane preparation with the [^3H]-ligand, with or without addition of compounds of the invention, separation of bound and free ligand was performed by filtration over glass fiber filters. Radioactivity on the filter was measured by scintillation counting.
# (§2) The ability of the compounds to displace the radioligand [^3H]-CP-55,940 was measured at a concentration of 10 μM and values provided as [% inhibition @ 10 μM] both for the CB 1 and CB2 receptor assay, The lower % inhibition is, the lower the likelihood of side effects based on CB1 or CB2 receptor inhibition is.
# [2] = target: T2, human CB1 receptor (Homo sapiens, UniProt P21554); assay: CB1 receptor affinity, [3H]-CP-55,940 displacement, HEK cell membranes; type: binding; conditions: 10 μM compound, radioligand [3H]-CP-55,940
# T2 construct: expressed in transfected cells; host or cells: human embryonic kidney (HEK) cells, Semliki Forest Virus system, membrane preparations
# Protocol: as §1, with “cannabinoid” for “cannabinoid CB2”, “CB1” for “CB2”, “[3H]-CP-55,940” for “[^3H]-CP-55,940”
# as §2
# [3] = system: ABCA1 protein; assay: Detection of upregulation of ABCA1 protein in THP-1 macrophage cells (ApoA-I binding, high content imaging); type: cell-based; conditions: 24 hrs with compound, AlexaFluor 647 ApoA-I binding, read-out: ABCA1 protein increasing efficacy EC50
# Protocol: The ability of compounds of the invention to increase the level of ABCA1 protein is determined in replicate cultures of THP-1 macrophage cells in 96-well microplates. Cells are plated at an initial density of 100,000 cells/well in 100 μl medium and differentiated to adherent macrophages with the addition of PMA (100 nM) for 68 hrs in 10% fetal bovine serum, 3 μl/L of b-mercaptoethanol, RPMI-1640 medium. Then, cells are incubated with RPMI-1640 medium containing 1% FCS, 25 μg/ml acetylated LDL, for 24 hours at 37°. Following incubation with acetylated LDL, cells are washed twice with 50 μl PBS and incubated with 100 μl of RPMI-1640 medium containing the compound of interest solubilized in DMSO for an additional 24 hrs. The final DMSO concentration in presence of cells is maintained at 0.5%. […] Fixed stained cells are washed and kept in PBS at 4° C. and can be read immediately until one month after preparation. […]
# Imaging and data collection were performed on an OPERA confocal microplate imaging reader using a 20× water immersion objective and UV360 or 405 laser to identify the cell nuclei and a 635 laser to identify the fluorescent ApoA-I. Eight fields of view are captured per well. […] Background fluorescence detected in control wells without ApoA-I was subtracted. […]
inhibition at 10 µM [1],inhibition at 10 µM [2],SMILES,EC50 [3]
16%,39%,"COc1cc(CNC(=O)c2cc(-c3ccc(Cl)cc3)c(O[C@@H](C)C(F)(F)F)nn2)on1 [Example 24, (S)-5-(4-chlorophenyl)-N-((3-methoxyisoxazol-5-yl)methyl)-6-(1,1,1-trifluoropropan-2-yloxy)pyridazine-3-carboxamide]",
11%,4%,"Cc1cc(-c2cc(C(=O)NCc3nc(C(F)(F)F)no3)ncc2OCC(F)(F)F)ccc1Cl [Example 77, 4-(4-chloro-3-methylphenyl)-5-(2,2,2-trifluoroethoxy)-N-((3-(trifluoromethyl)-1,2,4-oxadiazol-5-yl)methyl)picolinamide]",330 nM
